Test results taken from the supplement of paper PMC12823440, “Inhibitors supercharge kinase turnover through native proteolytic circuits” (Nature, 2025).
Where a name gives a salt, the structure may show the parent alone. The list shows a part of the results. Hit calls seldom repeat between salt and free forms of one compound.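 Kinases, fused to nanoluciferase, were expressed in K562 cells; luminescence was measured every 4 h from 2 to 18 h as percent of control (DMSO = 100%, positive control = 0%). A time point is decreased if signal falls significantly (2 sigma). Hits were called by the authors by a rule that is not shown; the count of time points alone does not decide it.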

Sequences of proteins named here, by UniProt entry; tags and fusion partners are left off.
UniProt Q9UQM7, whole entry: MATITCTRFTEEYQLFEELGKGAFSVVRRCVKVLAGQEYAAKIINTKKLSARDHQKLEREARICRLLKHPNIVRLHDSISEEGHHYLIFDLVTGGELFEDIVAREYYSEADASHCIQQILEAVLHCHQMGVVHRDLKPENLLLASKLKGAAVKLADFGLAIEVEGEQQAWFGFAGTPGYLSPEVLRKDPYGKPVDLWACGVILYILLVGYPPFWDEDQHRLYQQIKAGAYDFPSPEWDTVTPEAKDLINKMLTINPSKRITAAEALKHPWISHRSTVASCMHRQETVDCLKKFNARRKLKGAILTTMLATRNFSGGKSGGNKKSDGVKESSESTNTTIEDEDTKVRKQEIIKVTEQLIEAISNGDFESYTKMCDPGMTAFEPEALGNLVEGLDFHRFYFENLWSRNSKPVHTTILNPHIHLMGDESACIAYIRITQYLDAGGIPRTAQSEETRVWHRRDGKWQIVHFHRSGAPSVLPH

The molecules below were run against CAMK2A (UniProt Q9UQM7) (assay: kinase-Nluc reporter destabilization hit call (1 = scored as downregulated) (binary); higher = compound decreases kinase abundance). Settings: K562; 2-18 h.

kinase-Nluc reporter destabilization hit call, inactive:
O=c1cc(O)cc(/C=C/c2ccc(O)c(O)c2)o1 [Hispidin] (10 µM) 0
CC1CN(C(=O)Nc2ccc(Cl)c(Cl)c2)C(=Nc2ccc(F)cc2)S1 (stereo not drawn) (10 µM) 0
COc1cc2c[n+](C)c3c4cc5c(cc4ccc3c2cc1OC)OCO5 [Nitidine (chloride)] (2 µM) 0
Cc1c(CN2CCN(S(C)(=O)=O)CC2)sc2c(N3CCOCC3)nc(-c3cnc(N)nc3)nc12 (2.5 µM) 0
Cc1cc([C@H](C)Nc2ccccc2)c2oc(N3CCOCC3)cc(=O)c2c1 (10 µM) 0
O=C(CNC(=O)c1ccc(-c2ccccc2)cc1)NC1CCCc2ccccc21 (stereo not drawn) [TAO Kinase inhibitor 1] (10 µM) 0
Cn1cc(-c2ccc(CNc3cc(-c4cnc5cc(OCCCN6CCCC6)ccn45)ncn3)cc2)cn1 (10 µM) 0
Cc1ccc(S(=O)(=O)Nc2ccccc2C=Nc2ccccc2NS(=O)(=O)c2ccc(C)cc2)cc1 (10 µM) 0
O=C(/C=C/c1ccc(O)c(O)c1)c1ccc(O[C@@H]2O[C@H](CO)[C@@H](O)[C@H](O)[C@H]2O)c(O)c1O [Marein] (10 µM) 0
O=C(NCCCNc1nc(Nc2cccc(NC(=O)N3CCCC3)c2)ncc1I)c1cccs1 (2.5 µM) 0
CN(CCNc1ccc2ncc(-c3ccc(C(N)=O)cc3)n2n1)C(=O)OC(C)(C)C (10 µM) 0
C=C(C)C(=O)Nc1cccc(-c2ncnc3[nH]cc(C(=O)OCC)c23)c1 (10 µM) 0
COc1ccc(C(=C2C(=O)Nc3ccccc32)c2ccc(OC)cc2)cc1 (10 µM) 0
CN1CCN(c2ccc(C(=O)Nc3cc(-c4cccc(NS(=O)(=O)c5ccccc5)c4)[nH]n3)cc2)CC1 [BPR1J-097 Hydrochloride] (2.5 µM) 0
C=CC(=O)Nc1cc2c(Nc3ccc(OCc4ccccn4)c(Cl)c3)ncnc2cc1OCCN1CCOCC1 (10 µM) 0
Cc1c(NC(=O)OC[C@@H]2COCCN2)cn2ncnc(Nc3ccc4c(cnn4Cc4cccc(F)c4)c3)c12 (10 µM) 0
CNc1nc(Nc2cnn(C3CCN(C4COC4)CC3F)c2Cl)ncc1C(F)(F)F (stereo not drawn) (10 µM) 0
O=C(NCCO)c1ccc2c(c1)nc(Nc1cccc(Cl)c1)c1ccncc12 [CK2 inhibitor 2] (10 µM) 0
N#CC(c1ccnc(NCCc2cccnc2)n1)c1nc2ccccc2s1 (stereo not drawn) (10 µM) 0
CCN(CC)S(=O)(=O)c1ccc(OC)c(N2CCN(C(=O)c3ccc(F)cc3C(F)(F)F)CC2)c1 (10 µM) 0
CO[C@H]1C[C@@H]2CC[C@@H](C)[C@@](O)(O2)C(=O)C(=O)N2CCCC[C@H]2C(=O)O[C@H]([C@H](C)C[C@@H]2CC[C@@H](O)[C@H](OC)C2)CC(=O)[C@H](C)/C=C(\C)[C@@H](O)[C@@H](OC)C(=O)[C@H](C)C[C@H](C)/C=C/C=C/C=C/1C [Rapamycin] (10 µM) 0
CN(C)CCN(Cc1ccc(Cl)cc1)c1ccccn1 [Chloropyramine hydrochloride] (10 µM) 0
O=C(Nc1ccc(F)cc1F)[C@H](NC(=S)Nc1cc(C(F)(F)F)cc(C(F)(F)F)c1)c1ccccc1 (2.5 µM) 0
Cc1ccc(Nc2cc(-c3cccc(N4C(=O)c5ccccc5C4=O)c3)ncn2)cc1NS(C)(=O)=O (10 µM) 0
CC(C)(C)c1ccc(S(=O)(=O)Nc2ccc(-n3ccnc3)cc2)cc1 (10 µM) 0
CCc1cc(O)c(F)cc1-c1ccc2c(-c3nc4c([nH]3)CN(C3CCN(C)CC3)CC4)n[nH]c2c1 [JAK-IN-5 (hydrochloride)] (2 µM) 0
CC1=C2C(=O)O[C@@H](c3ccoc3)[C@]2(C)CCC1 [Fraxinellone] (10 µM) 0
COc1cc(C(N)=O)nc(-c2cccc(C#C[C@]3(O)CCN(C)C3=O)c2)c1 (10 µM) 0
COc1ncc(-c2nc(N3CCOCC3)nc3c(CN4CCC(C(C)(C)O)CC4)cc(F)cc23)cc1NS(C)(=O)=O [Linperlisib] (10 µM) 0
Fc1ccc(-c2nc(-c3ccccc3F)[nH]c2-c2ccncc2)cc1 (2.5 µM) 0
CC(C)=CC[C@H](O)C1=CC(=O)c2c(O)ccc(O)c2C1=O [(-)-Alkannin] (2.5 µM) 0
CC(C)c1cnc(-c2cc(Cl)ccc2F)cc1Nc1ccncc1C(=O)NC(CO)CO (2.5 µM) 0
Cn1cnc(-c2cc3nccc(Oc4ccc(NC(=S)NC(=O)Cc5ccccc5)cc4F)c3s2)c1 [MGCD-265 analog] (10 µM) 0
COC1(c2sc3c(N4CCOCC4)nc(-c4cnc(N)nc4)nc3c2C)COC1 (2.5 µM) 0
Cc1cc(NC(=O)c2cccc(NC(=O)/C=C/CN(C)C)c2)ccc1Nc1nccc(-c2cccnc2)n1 (10 µM) 0
O=C(/C=C/c1ccc(O)c(O)c1)OC1CC(OC(=O)/C=C/c2ccc(O)c(O)c2)(C(=O)O)CC(O)C1O (stereo not drawn) [1,3-Dicaffeoylquinic acid] (10 µM) 0
COc1ccc2c(c1O)OC(C)(C)c1c-2ccc2c1C(=O)N(c1ccc(C(=O)c3ccccc3)cc1)C2=O [Ampkinone] (10 µM) 0
CNC(=O)Nc1ccc(-c2cc(-c3ccnc(Nc4ccc(C)c(S(=O)(=O)N(C)C)c4)n3)ccn2)cc1 [hSMG-1 inhibitor 11e] (2.5 µM) 0

Pulled by structure from the entries so far, two records:
kinase-Nluc reporter destabilization hit call, inactive:
CC(C)(C)c1ccc(S(=O)(=O)Nc2ccc(-n3ccnc3)cc2)cc1 (10 µM) 0
COc1ccc2c(c1O)OC(C)(C)c1c-2ccc2c1C(=O)N(c1ccc(C(=O)c3ccccc3)cc1)C2=O [Ampkinone] (10 µM) 0
